At least one compound was matched to its structure with a doubt left.
Tested on: hESC-derived motor neurons
Experiment: Whole-cell patch-clamp of hESC-derived motor neurons, spontaneous synaptic currents
Format: cell-based, human

CN1CCc2cc3c(cc2[C@H]1[C@@H]1OC(=O)c2c1ccc1c2OCO1)OCO3 [bicuculline]
Effect on outward (inhibitory) synaptic currents: blocked
